Taken from: PubChem BioAssay AID1259425 (University of Nebraska Medical Center, 2018)
The deposit covers about 14,000 reagents; this is a part drawn at random. Further read-outs or replicates are left out here. Not stated in the record: the time to read-out.

- Aim: 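Compare each knockdown with KSR1 silencing using changes in marker transcripts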 (primary screen)
- Cells: HCT116 human colon cancer cells
- Reagents: siRNA pool against human genes, 50 nM siRNA
- Measurement: 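mRNA of six signature genes measured together by branched-DNA assay after 50 nM siRNA pool, blank removed, divided by geometric mean of two housekeeping genes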
- Reading the numbers: BNIP3L mRNA: higher = more BNIP3L transcript after knockdown; NDRG1 mRNA: higher = more NDRG1 transcript after knockdown

target gene | PubChem SID | BNIP3L mRNA, set 1 | NDRG1 mRNA, set 1
WDR1 | SID363996047 | 0.207 | 0.0838
P2RX6 | SID363996352 | 0.133 | 0.23
TRIM16 | SID363997278 | 0.152 | 0.326
GPR18 | SID363996209 | 0.175 | 0.162
TOP3A | SID363995586 | 0.0923 | 0.346
IK | SID363996926 | 0.238 | 0.421
CWC22 | SID364005077 | 0.0731 | 0.0854
APOBEC3C | SID363998915 | 0.149 | 0.106
CBY1 | SID363999450 | 0.23 | 0.876
JAG1 | SID363991549 | 0.0597 | 0.106
NKD1 | SID364004327 | 0.0925 | 0.137

6 entries from above, arranged by “NDRG1 mRNA, set 1”, ascending:
target gene | PubChem SID | BNIP3L mRNA, set 1 | NDRG1 mRNA, set 1
CWC22 | SID364005077 | 0.0731 | 0.0854
GPR18 | SID363996209 | 0.175 | 0.162
P2RX6 | SID363996352 | 0.133 | 0.23
TRIM16 | SID363997278 | 0.152 | 0.326
TOP3A | SID363995586 | 0.0923 | 0.346
IK | SID363996926 | 0.238 | 0.421

The results go on:
target gene | PubChem SID | BNIP3L mRNA, set 1 | NDRG1 mRNA, set 1
MID1 | SID363991712 | 0.0501 | 0.184
ASPA | SID363991388 | 0.131 | 0.115
CHD8 | SID364005415 | 0.118 | 0.351
RNMT | SID363994862 | 0.0783 | 0.217
ZDHHC6 | SID364002479 | 0.268 | 0.289
ADAR | SID363992406 | 0.0712 | 0.402
CRACD | SID364005158 | 0.15 | 0.422
VENTX | SID363998880 | 0.132 | 1.57
RCHY1 | SID363999494 | 0.112 | 0.609
TGFBI | SID363991689 | 0.174 | 0.149
NPHS1 | SID363995614 | 0.0777 | 0.144
NSDHL | SID363999724 | 0.0682 | 0.202
SLC6A6 | SID363994192 | 0.0431 | 0.243
DRG2 | SID363992659 | 0.103 | 0.159
AMPH | SID363992860 | 0.143 | 0.269
ARHGEF18 | SID363999412 | 0.059 | 0.0845
EEF1AKMT3 | SID363999491 | 0.161 | 1.2
MAT2A | SID363996780 | 0.047 | 0.0907
MIR503HG | SID364004157 | 0.112 | 0.497
ETFB | SID363993197 | 0.0965 | 0.208
CTNNB1 | SID363993117 | 0.0498 | 0.231
CLASRP | SID363997787 | 0.157 | 0.251
ZBED1 | SID363995688 | 0.133 | 0.156
